For orientation: AC50 means the midpoint of the concentration-response curve, whichever way the signal moves.

SMILES strings stand for the structures. “And” between values parts separate entries of the source, which are not always exact repeats. Identical values can stand only once. This is one part of the list. These are further read-outs of the screen, such as a control signal, another cell line or another target. No call is given for them. The list favours compounds with an active or inconclusive main result. The note in brackets gives the kind of curve behind each potency; many fits are weak.

Here are results for 56 compounds from PubChem BioAssay AID1487 (National Center for Advancing Translational Sciences (NCATS), 2009).

A short description of the assay: qHTS Assay for Modulators of Lamin A Splicing. The conditions noted are these: HeLa LMNA splicing GFP/RFP minigene ratio, 48 h. The essentials: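 Read-out is the ratio of GFP to DsRed2 object intensity, acquired by 488 nm laser-scanning cytometry on HeLa lamin A-EGFP minigene reporter cells. Compound incubation 48 hrs at 37 °C in Opti-MEM with 2% FBS; DMSO 0.5% final.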
A general note: Quantitative high-throughput screening tests each substance at several concentrations.

[1] abbreviates: measured here: RFP viability control channel.
[2] abbreviates: measured here: GFP splicing reporter channel.

In the case of `C=CCNc1nc(N)c(C(=C(C#N)C#N)c2ccc(Br)cc2)s1`, the AC50 under setting [1] is 17.8 µM [rising, partial curve].
Regarding `O=C(CC(c1ccc(F)cc1)c1ccco1)Nc1nccs1` (configuration not stated), the AC50 under setting [2] was 1.58 µM [falling, partial curve, poor fit].
With `CCOc1ccc(NS(=O)(=O)c2ccc(OC)c(NC(=O)c3ccc4c(c3)OCCO4)c2)cc1`, under setting [1], the half-maximal activity concentration (AC50) is 10 µM [rising, partial curve].
With `CCCCn1c(NC(=O)C2CCCCC2)nc2ccccc21`, the concentration at half-maximal activity (AC50) under setting [1] was 11.2 µM [rising, partial curve].
For `CCOC(=O)C(NC(C)=O)(Nc1ccc(S(N)(=O)=O)cc1)C(F)(F)F` (configuration not stated), the AC50 under setting [1] was 35.5 µM [falling, single point].
For the compound `O=C(Cn1nc(-c2ccccc2)nc1-c1ccccc1)OC1CCCCC1`, the AC50 under setting [2] is 11.2 µM [rising, single point] and the AC50 under setting [1] is 12.6 µM [rising, single point].
Turning to `OC1(c2cccnc2)CCN(Cc2nnnn2C2CCCCC2)CC1`, under setting [2], the AC50 was 3.55 µM [falling, partial curve].
For `CCc1nc2ccccc2n1CC1CC1(Cl)Cl` (configuration not stated), the AC50 is 0.00447 µM [rising, full curve, poor fit] under setting [2] and 0.00398 µM [rising, full curve, poor fit] under setting [1].
Regarding `Cc1ccc(NC(=O)CSc2nc(C)c(C)c(C)n2)c([N+](=O)[O-])c1`, the AC50 is, setting by setting: under setting [2], 31.6 µM [rising, single point]; under setting [1], 20 µM [rising, single point].
`COc1ccc2c(c1)OC1(O)COc3cc(OC)c(OC)cc3C1=C2` (configuration not stated): the AC50 reads like this: under setting [2], 14.1 µM [rising, single point]; under setting [1], 35.5 µM [rising, single point].
With `CCOC(=O)C1=C(Cc2ccc(OC)cc2)C(=O)c2ccccc2C1=O`, the AC50 under setting [1] was 11.2 µM [rising, partial curve].
Same read-out and setting: with `O=C(Nc1ccc(C2CC2(Cl)Cl)cc1)c1ccccc1Br` (configuration not stated) the figure was 35.5 µM [rising, partial curve, poor fit].
Turning to `CCCc1n(CC(O)COCc2ccccc2)c2ccccc2[n+]1C` (configuration not stated), the AC50 under setting [2] is 0.0794 µM [rising, full curve, poor fit].
`O=C(NCc1ccc(Cl)cc1)C1CCCN(c2nc3ccccc3n3cccc23)C1` (configuration not stated): the AC50 under setting [1] is 20 µM [falling, single point].
Same read-out and setting: with `CCN(c1ccc(OC)cc1)S(=O)(=O)c1ccc2[nH]c(=O)ccc2c1` the figure was 8.91 µM [rising, partial curve]; with `C=CCn1c(SCC(=O)Nc2cccnc2Cl)nnc1-c1ccc(Cl)cc1`, 22.4 µM [rising, partial curve]; with `Cc1c(NC(=O)/C(C#N)=C/c2c(Oc3ccccc3)nc3ccccn3c2=O)c(=O)n(-c2ccccc2)n1C`, 35.5 µM [rising, single point].
On to `Nc1c(-c2nc(-c3cccs3)no2)nnn1-c1cccc(Cl)c1`, for which the AC50 under setting [2] was 0.158 µM [rising, full curve, poor fit].
For the compound `Cc1cc(C2=NNC(=NC3CC3)SC2)c(C)n1-c1ccccc1F`, under setting [1], the half-maximal activity concentration (AC50) is 35.5 µM [rising, single point].
Consider `Cc1cc(NC(=O)C(=O)NCCN2CCN(C(=O)c3cccs3)CC2)ccc1Br`, for which the half-maximal activity concentration (AC50) under setting [1] was 15.8 µM [rising, single point].
As for `CCOC(=O)/C(=N/Nc1ccc(OC)cc1)Sc1nnc(CCc2ccccc2)n1-c1ccccc1`, under setting [2], the AC50 is 35.5 µM [falling, single point].
In the case of `CCc1ccc(Nc2ncnc3c2cnn3-c2cc(Cl)ccc2C)cc1`, under setting [2], the concentration at half-maximal activity (AC50) was 10 µM [falling, partial curve, poor fit].
`Cc1cc(OCc2ccc(F)cc2)nc(-c2ccccc2O)n1`: the AC50 reads like this: under setting [2], 10 µM [rising, partial curve, poor fit]; under setting [1], 11.2 µM [rising, single point].
For `Cc1ccc(C)c(OCCCC(=O)Nc2nccs2)c1`, the AC50 runs as follows: under setting [2], 6.31 µM [rising, full curve]; under setting [1], 8.91 µM [rising, partial curve].
In the case of `CCOc1ccccc1CC1C(=O)Nc2ccc(Br)cc21` (configuration not stated), the AC50 was 14.1 µM [falling, partial curve, poor fit] under setting [2] and 35.5 µM [falling, single point] under setting [1].
Consider `O=C(NCc1ccc(N2CCCC2=O)cc1)c1cccc(Cl)c1`, for which the AC50 under setting [1] is 0.112 µM [rising, full curve, poor fit].
With `CSc1cccc(NC(=O)C2CCN(C(=O)c3ccccc3C)CC2)c1`, the AC50 was 12.6 µM [rising, partial curve] under setting [2] and 17.8 µM [rising, partial curve] under setting [1].
Regarding `COc1ccc(S(=O)(=O)N(C)C)cc1NCC(=O)Nc1ccc(Br)cc1F`, the AC50 under setting [1] was 14.1 µM [rising, partial curve].
Regarding `COc1cc(/C=C(/C#N)c2ccc(F)cc2)ccc1Oc1ccc([N+](=O)[O-])cn1`, the half-maximal activity concentration (AC50) by setting is: under setting [2], 3.55 µM [rising, full curve, poor fit]; under setting [1], 7.94 µM [rising, partial curve].
With `Cc1ccnc(NC(=O)CCC(=O)N(CC(=O)NC2CCCCC2)CC2CCCO2)c1` (configuration not stated), under setting [1], the concentration at half-maximal activity (AC50) is 5.62 µM [falling, single point].
Take `O=S(=O)(Nc1ccc(N=Nc2ccc(O)c3ccccc23)cc1)c1ccccc1`: the AC50 under setting [2] was 35.5 µM [falling, single point] and the AC50 under setting [1] was 35.5 µM [falling, single point].
With `COc1ccc(NC(=S)c2ccncc2)cc1`, the AC50 under setting [2] was 14.1 µM [rising, partial curve] and the AC50 under setting [1] is 12.6 µM [rising, partial curve].
`CC(=O)Oc1ccc(OC(C)=O)c(SCCCCCCl)c1`: the AC50 is 3.55 µM [falling, full curve, poor fit] under setting [2] and 14.1 µM [falling, partial curve] under setting [1].
With `CC1Cc2ccccc2N1C(=O)CSc1ccccc1` (configuration not stated), the AC50 under setting [2] was 17.8 µM [rising, single point].
In the case of `O=C(NC(NC(=S)Nc1c(Cl)cccc1Cl)C(Cl)(Cl)Cl)OCc1ccccc1` (configuration not stated), the AC50 under setting [2] was 15.8 µM [falling, single point].
For the compound `CC(c1ccco1)N(C(=O)c1ccccc1NS(=O)(=O)c1cc([N+](=O)[O-])ccc1Cl)c1ccccn1` (configuration not stated), the AC50 by setting is: under setting [2], 0.282 µM [falling, full curve, poor fit]; under setting [1], 0.158 µM [falling, full curve, poor fit].
As for `COc1ccc(-c2cc(=O)c3c(O)cc(O)c(-c4cc(-c5cc(=O)c6c(O)cc(O)cc6o5)ccc4OC)c3o2)cc1`, the half-maximal activity concentration (AC50) is, setting by setting: under setting [2], 12.6 µM [falling, partial curve]; under setting [1], 20 µM [falling, partial curve].
For `Cc1ccc(NS(=O)(=O)c2ccc(N3CCN(c4ccc(O)cc4)CC3)c([N+](=O)[O-])c2)c(C)c1`, the AC50 is 12.6 µM [rising, partial curve, poor fit] under setting [2] and 17.8 µM [rising, partial curve] under setting [1].
`O=C(Nc1cccc(Cl)c1)OCCN1CCN(Cc2ccccc2)CCC1=O`: the AC50 under setting [1] is 17.8 µM [rising, partial curve].
Turning to `Cc1ccc(N(Cc2cccs2)C(=O)c2ccc(Br)o2)cc1`, the AC50 under setting [1] was 14.1 µM [rising, single point].
For the compound `Cc1ccc(O)c(N=Nc2ccccc2)n1`, the half-maximal activity concentration (AC50) under setting [2] was 3.98 µM [falling, full curve] and the AC50 under setting [1] was 7.08 µM [falling, partial curve].
As for `O=C(/C=C/c1ccccc1[N+](=O)[O-])N1CCN(c2ccccc2F)CC1`, the concentration at half-maximal activity (AC50) is 2 µM [rising, partial curve] under setting [2] and 0.631 µM [rising, full curve] under setting [1].
Regarding `Cc1cccc(C(=O)NC2CCCc3ccccc32)c1` (configuration not stated), the AC50 runs as follows: under setting [2], 35.5 µM [falling, single point]; under setting [1], 25.1 µM [falling, single point].
As to `Cc1nn(Cc2ccccc2)c(C)c1NC(=O)c1cccs1`, under setting [1], the AC50 is 3.16 µM [falling, single point].
In the case of `Cn1c(-c2ccc(F)cc2)cnc1SCC(=O)N1CCCc2ccccc21`, under setting [1], the half-maximal activity concentration (AC50) is 31.6 µM [rising, single point].
The same measure, in the same setting: the figure for `Cc1c(O)ccc(-c2[nH]ncc2-c2nc3ccccc3s2)c1O` is 31.6 µM [rising, single point]; for `O=C(NCc1cccnc1)c1cccc(S(=O)(=O)N2CCCCC2)c1` it is 11.2 µM [rising, single point]; for `COC(=O)c1ccc2c(=O)n(CCCCCC(=O)N3CCN(c4ccc(OC)cc4)CC3)c(=O)[nH]c2c1` it is 5.62 µM [falling, single point].
For `COc1cccc(C2=NOC(C(=O)NCc3ccccc3)C2)c1` (configuration not stated), the AC50 is, setting by setting: under setting [2], 3.16 µM [falling, full curve]; under setting [1], 4.47 µM [falling, full curve].
`CCC(C)Sc1nc2c(c(=O)[nH]c(=O)n2C)n1CCc1ccccc1` (configuration not stated): the AC50 under setting [1] was 35.5 µM [rising, single point].
Still for that read-out and setting: the figure for `COc1ccc2nc3sc(C(=O)NCCN4CCc5ccccc5C4)cc3cc2c1` is 35.5 µM [rising, single point]; for `Cc1ccc(CC2SC(=Nc3ccccc3)N(c3ccccc3)C2=O)cc1` (configuration not stated) it is 35.5 µM [rising, single point].
As for `CCOc1ccc(CNC(=O)c2ccc(Sc3ccc(Cl)cc3)c(NC(C)=O)c2)cc1OC`, the AC50 by setting is: under setting [2], 11.2 µM [falling, partial curve]; under setting [1], 14.1 µM [rising, single point] and 12.6 µM [falling, partial curve].
On to `CC(=O)c1ccc(N2CCN(C(=O)COc3ccc(F)cc3)CC2)c(F)c1`, for which the AC50 under setting [1] was 35.5 µM [rising, single point].
The same measure, in the same setting: with `CCC(=O)Oc1ccc2c(C)cc(=O)oc2c1C` the figure was 17.8 µM [rising, single point].
For `Cc1ccc(NC(=O)c2cccs2)cc1S(=O)(=O)N(C)C`, the AC50 under setting [2] was 10 µM [rising, partial curve] and the AC50 under setting [1] is 12.6 µM [rising, single point].
